The list shows a part of the results. These are further read-outs of the screen, such as a control signal, another cell line or another target. No call is given for them. Compounds called inactive in the main read-out are mostly missing here. Potencies come from curve fits of mixed quality, noted in brackets.

The assay can be described thus: qHTS Assay for Lipid Storage Modulators in Drosophila S3 Cells.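 On cell number change: cells counted by Cell Tracker Red CMTPX staining in the red channel.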 The note with it: BODIPY lipid droplet fluorescence, 18-24 h; for cell number change: measured here: cell count max response, cells fed with added oleic acid. The procedure, abridged: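 Drosophila S3 cells got compounds at several concentrations plus oleic acid (400 uM solution). Laser-scanning cytometry with 488 nm excitation read lipid droplets at 500-530 nm and cells at 575-640 nm. Percent activity was relative to 20 uM Triacsin C.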
In general terms: qHTS replaces the single test concentration by a dilution series.

The mark [1] stands for this setting: measured here: lipid fluorescence (Fed channel) AC50, cells fed with added oleic acid.
The mark [2] stands for this setting: measured here: cell number channel AC50, cells fed with added oleic acid.

For `CC(C)CC(NC(=O)OC(C)(C)C)C(=O)O` (centres undefined), the cell number change amounted to 15.2%.
`O=c1oc2ccccc2cc1-c1cn2cccnc2n1`: the cell number change amounted to 24.6%. Moreover, the AC50 (commonly the concentration giving half of the maximal activity seen) under setting [1] was 3.26 µM [rising, single point].
`O=C(CN1CCN(S(=O)(=O)c2ccccc2)CC1)Nc1cccc(C(F)(F)F)c1`: the cell number change is -63.8%. Besides, the concentration at half-maximal activity (AC50) under setting [2] is 14.6 µM [falling, partial curve]. Further, under setting [1], the AC50 is 0.146 µM [falling, full curve, poor fit].
As to `CCN(CC)CCn1cnc2c1c(=O)n(CCOC(=O)c1cc(OC)c(OC)c(OC)c1)c(=O)n2C`, the cell number change worked out at 36.8%. Further, under setting [2], the AC50 was 0.103 µM [rising, partial curve]. For the same compound, the concentration at half-maximal activity (AC50) under setting [1] is 8.2 µM [rising, partial curve, poor fit].
As for `CCOc1cc(C(=S)N2CCCCC2)ccc1OS(=O)(=O)c1ccc(Cl)cc1`, the cell number change is -23%. In addition, the AC50 under setting [1] was 32.6 µM [falling, single point].
In the case of `Cc1ccc2c(c1)COc1c3ccc(C(=O)N4CCOCC4)cc3nn1-2`, the cell number change was 5.2%. The half-maximal activity concentration (AC50) under setting [1] is 0.58 µM [rising, full curve].
For `COc1ccc(OC)c(NC(=O)CSc2nnc(CNc3ccc(C)cc3C)o2)c1`, the cell number change was determined as 1.43%. Under setting [1], the AC50 was 0.206 µM [rising, full curve].
With `O=c1[nH][nH]c(=S)n1C1CCCCC1`, the cell number change was -32.5%. Besides, the concentration at half-maximal activity (AC50) under setting [2] is 29.1 µM [falling, single point]. The AC50 under setting [1] is 32.6 µM [falling, single point].
As to `Cc1ccccc1-n1c(SCC(N)=O)nc2sc(-c3ccccc3)cc2c1=O`, the cell number change turned out to be 55.8%. Further, the AC50 under setting [2] was 1.46 µM [rising, full curve].
As to `CC1=C(C(=O)Nc2cccc(F)c2)C(c2ccsc2)C2=C(CC(C)(C)CC2=O)N1` (centres undefined), the cell number change is 13.8%. Also, the AC50 under setting [1] is 0.0411 µM [rising, partial curve, poor fit].
`Cc1ccc2nc(-c3ccccc3N)[nH]c2c1`: the cell number change was -3.49%. In addition, the AC50 under setting [1] was 29.1 µM [rising, single point].
Consider `O=c1oc2c(-c3cccc(F)c3)cc(O)cc2s1`, for which the cell number change is -28.1%. Further, under setting [1], the concentration at half-maximal activity (AC50) is 25.9 µM [falling, single point].
Take `Cc1ccc(C)c(S(=O)(=O)N2CCN(c3ncccn3)CC2)c1`: the cell number change is -0.184%.
Turning to `Cn1c(Cc2cccs2)nnc1SCC(=O)Nc1ccccc1`, the AC50 under setting [1] is 3.66 µM [rising, full curve].
On to `CC1C(=O)CCC1(C(=O)O)c1ccccc1` (centres undefined), for which the cell number change is 0.974%. Besides, under setting [1], the AC50 is 4.11 µM [falling, single point].
For `COc1ccc(-c2nn(-c3ccccc3)cc2C(=O)NCC2CCCO2)cc1` (centres undefined), the cell number change is -17.6%.
For the compound `CCCCn1c(N)c(N(CC)C(=O)c2ccncc2)c(=O)[nH]c1=O`, the cell number change was -7.02%. Also, the AC50 under setting [1] is 1.84 µM [falling, partial curve].
On to `COc1ccc(/C=C/C(=O)NC2CCCCC2C)cc1` (centres undefined), for which the cell number change was -6.2%.
